Compound in the experiment: Nc1ncnc2c1ncn2[C@@H]1O[C@H](COP(=O)(O)OP(=O)(O)NP(=O)(O)O)[C@@H](O)[C@H]1O [adenylyl imidodiphosphate]
Put plainly: NP40-soluble protein abundance relative to vehicle (solubility fold change) (ratio); higher = more soluble protein in presence of AMP-PNP. The gist of the method: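 Values are fold changes against the detergent-processed vehicle, based on vsn-normalised intensities. Jurkat crude lysate was treated at eight concentrations from 0.1 to 10 mM (10 min at room temperature, then 3 min at 37 °C), solubilised with 0.8% NP40 and benzonase, ultracentrifuged and analysed by TMT-labelled LC-MS/MS over three independent experiments.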

Chains of the proteins cited; added tags and fusions are not shown. Lines headed by an entry give the natural chain unless they say otherwise; changes in a name come on top.
UniProt Q53GS9: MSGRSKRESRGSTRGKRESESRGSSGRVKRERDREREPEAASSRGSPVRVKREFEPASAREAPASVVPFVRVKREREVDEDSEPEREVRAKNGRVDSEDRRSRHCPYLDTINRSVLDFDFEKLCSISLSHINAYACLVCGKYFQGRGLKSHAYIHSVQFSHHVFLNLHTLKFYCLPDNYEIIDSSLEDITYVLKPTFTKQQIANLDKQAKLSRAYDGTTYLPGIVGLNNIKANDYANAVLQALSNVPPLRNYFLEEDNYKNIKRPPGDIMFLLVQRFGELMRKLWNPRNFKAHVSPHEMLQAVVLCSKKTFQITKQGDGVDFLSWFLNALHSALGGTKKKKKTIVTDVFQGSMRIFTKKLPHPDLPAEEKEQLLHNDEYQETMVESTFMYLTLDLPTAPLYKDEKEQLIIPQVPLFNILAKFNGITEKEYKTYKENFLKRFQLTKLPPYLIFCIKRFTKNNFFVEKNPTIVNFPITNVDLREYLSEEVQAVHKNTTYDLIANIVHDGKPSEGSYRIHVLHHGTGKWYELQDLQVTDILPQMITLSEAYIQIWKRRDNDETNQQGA
UniProt Q9H6K4: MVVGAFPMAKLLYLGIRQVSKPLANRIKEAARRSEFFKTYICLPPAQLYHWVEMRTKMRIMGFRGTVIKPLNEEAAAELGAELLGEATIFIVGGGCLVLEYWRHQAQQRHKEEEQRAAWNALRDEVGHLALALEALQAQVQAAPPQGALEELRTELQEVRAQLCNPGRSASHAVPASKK
UniProt P55145: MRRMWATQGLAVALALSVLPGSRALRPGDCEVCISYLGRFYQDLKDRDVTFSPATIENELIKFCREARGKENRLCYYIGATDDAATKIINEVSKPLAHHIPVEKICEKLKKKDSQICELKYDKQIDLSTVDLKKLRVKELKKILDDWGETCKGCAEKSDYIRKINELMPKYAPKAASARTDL
UniProt Q9H6H4: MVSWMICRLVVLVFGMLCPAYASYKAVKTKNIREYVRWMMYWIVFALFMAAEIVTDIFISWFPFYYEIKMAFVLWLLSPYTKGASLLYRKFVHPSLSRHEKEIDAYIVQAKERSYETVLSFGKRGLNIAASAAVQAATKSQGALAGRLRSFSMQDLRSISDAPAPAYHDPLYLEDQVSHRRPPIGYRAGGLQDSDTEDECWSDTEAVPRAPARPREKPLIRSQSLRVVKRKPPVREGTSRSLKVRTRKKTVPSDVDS
UniProt A2RRP1: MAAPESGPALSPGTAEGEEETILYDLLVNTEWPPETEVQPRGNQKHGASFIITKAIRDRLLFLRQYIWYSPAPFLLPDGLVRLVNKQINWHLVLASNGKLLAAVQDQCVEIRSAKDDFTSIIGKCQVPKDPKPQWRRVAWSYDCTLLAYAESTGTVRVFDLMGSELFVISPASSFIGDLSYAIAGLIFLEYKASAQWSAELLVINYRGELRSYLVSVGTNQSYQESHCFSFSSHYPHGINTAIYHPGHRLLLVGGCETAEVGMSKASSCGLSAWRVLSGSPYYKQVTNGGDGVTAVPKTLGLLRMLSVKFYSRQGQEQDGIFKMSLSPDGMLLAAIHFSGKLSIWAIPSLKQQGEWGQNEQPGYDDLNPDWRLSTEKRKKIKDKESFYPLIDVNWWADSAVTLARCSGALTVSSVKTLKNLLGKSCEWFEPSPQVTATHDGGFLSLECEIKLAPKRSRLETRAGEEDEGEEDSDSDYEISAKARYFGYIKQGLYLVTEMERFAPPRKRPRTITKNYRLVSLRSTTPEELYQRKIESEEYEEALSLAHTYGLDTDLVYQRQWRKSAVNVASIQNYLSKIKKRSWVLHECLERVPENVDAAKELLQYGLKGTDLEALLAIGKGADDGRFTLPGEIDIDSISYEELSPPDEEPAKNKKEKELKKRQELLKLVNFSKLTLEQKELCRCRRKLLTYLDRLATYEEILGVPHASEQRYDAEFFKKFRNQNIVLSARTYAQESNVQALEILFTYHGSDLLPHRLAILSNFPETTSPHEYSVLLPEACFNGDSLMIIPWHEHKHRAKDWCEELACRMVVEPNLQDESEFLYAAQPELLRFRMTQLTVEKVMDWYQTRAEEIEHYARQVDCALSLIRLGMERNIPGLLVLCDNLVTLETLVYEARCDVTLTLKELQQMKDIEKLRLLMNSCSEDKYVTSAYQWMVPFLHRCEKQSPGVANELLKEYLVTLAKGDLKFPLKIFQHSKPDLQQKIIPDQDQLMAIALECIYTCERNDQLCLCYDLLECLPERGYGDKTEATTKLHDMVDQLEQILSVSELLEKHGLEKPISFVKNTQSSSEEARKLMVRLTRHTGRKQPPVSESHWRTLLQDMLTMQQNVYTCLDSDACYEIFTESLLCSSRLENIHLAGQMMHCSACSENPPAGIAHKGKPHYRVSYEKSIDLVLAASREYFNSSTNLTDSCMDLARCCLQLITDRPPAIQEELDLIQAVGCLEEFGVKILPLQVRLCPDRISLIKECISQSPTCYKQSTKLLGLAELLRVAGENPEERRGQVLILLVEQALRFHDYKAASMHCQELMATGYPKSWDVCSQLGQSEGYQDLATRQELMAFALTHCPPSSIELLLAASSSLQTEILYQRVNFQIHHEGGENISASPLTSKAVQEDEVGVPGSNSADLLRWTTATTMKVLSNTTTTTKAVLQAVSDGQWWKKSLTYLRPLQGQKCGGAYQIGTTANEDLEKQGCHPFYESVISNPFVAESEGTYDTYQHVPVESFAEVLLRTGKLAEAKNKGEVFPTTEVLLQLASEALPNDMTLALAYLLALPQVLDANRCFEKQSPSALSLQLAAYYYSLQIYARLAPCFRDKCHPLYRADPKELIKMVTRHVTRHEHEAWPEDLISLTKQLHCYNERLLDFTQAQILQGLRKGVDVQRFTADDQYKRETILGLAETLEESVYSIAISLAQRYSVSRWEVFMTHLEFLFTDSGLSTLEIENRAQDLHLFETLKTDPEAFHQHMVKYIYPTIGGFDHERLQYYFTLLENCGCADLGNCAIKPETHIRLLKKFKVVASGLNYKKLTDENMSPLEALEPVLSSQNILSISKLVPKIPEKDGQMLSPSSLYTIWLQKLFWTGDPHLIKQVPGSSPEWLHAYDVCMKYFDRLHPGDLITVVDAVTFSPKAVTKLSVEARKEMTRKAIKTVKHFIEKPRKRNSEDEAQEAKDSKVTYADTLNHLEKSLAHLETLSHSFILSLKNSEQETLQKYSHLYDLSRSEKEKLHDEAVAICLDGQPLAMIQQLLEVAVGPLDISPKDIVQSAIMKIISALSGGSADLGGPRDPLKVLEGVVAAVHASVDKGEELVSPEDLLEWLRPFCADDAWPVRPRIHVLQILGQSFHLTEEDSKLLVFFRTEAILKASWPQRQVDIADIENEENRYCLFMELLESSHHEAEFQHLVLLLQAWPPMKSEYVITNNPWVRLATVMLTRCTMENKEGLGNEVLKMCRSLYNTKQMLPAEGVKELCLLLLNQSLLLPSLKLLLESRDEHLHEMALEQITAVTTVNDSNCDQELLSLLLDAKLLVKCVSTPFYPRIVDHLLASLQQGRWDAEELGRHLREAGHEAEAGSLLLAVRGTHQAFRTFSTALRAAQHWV
UniProt P41223: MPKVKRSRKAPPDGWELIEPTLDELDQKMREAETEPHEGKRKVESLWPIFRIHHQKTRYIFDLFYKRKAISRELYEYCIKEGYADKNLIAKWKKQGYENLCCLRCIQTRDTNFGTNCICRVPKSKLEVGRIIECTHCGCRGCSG
UniProt Q8N3U4: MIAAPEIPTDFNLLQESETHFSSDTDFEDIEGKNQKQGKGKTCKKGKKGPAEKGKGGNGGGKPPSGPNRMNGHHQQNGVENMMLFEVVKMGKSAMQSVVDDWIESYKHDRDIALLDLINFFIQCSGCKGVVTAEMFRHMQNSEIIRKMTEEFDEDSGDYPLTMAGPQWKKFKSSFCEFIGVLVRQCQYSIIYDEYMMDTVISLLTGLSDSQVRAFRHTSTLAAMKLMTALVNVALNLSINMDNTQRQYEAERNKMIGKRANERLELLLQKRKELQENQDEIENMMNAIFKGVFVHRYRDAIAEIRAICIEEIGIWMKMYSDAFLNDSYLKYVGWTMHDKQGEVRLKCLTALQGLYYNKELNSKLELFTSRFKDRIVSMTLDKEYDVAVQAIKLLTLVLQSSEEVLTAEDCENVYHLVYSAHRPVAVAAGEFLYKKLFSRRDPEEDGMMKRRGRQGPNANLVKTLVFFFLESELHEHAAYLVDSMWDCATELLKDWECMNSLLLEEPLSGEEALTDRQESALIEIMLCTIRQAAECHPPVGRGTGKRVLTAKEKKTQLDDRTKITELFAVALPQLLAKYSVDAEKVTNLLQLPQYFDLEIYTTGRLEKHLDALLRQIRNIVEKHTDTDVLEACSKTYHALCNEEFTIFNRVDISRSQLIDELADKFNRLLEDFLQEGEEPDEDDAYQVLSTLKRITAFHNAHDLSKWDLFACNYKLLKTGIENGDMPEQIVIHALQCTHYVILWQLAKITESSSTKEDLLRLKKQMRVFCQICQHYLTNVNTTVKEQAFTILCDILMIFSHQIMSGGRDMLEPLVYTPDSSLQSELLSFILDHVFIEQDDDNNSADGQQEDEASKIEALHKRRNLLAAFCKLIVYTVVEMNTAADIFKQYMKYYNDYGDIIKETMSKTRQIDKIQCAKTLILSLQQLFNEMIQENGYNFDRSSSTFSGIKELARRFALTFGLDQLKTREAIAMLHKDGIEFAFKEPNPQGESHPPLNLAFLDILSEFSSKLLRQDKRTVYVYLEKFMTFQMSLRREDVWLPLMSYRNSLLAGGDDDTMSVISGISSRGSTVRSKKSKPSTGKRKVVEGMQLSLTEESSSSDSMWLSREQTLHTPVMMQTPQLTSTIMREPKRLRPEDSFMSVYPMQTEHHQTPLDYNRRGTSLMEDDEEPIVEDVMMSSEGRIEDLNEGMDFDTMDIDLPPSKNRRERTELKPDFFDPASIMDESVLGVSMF

± gives the standard deviation of the averaged measurements. This is a selection; strong and weak results do not stand in their true shares. Most values lie at the level of the controls, where differences are scatter.

With “D4Q8H0 and related entries (UniProt Q9NYL2+D4Q8H0)”, the NP40-soluble protein abundance (concentration: 0.1mM) was 1.02 ± 0.0072 and the NP40-soluble protein abundance (concentration: 0.5mM) is 1.03 ± 0.066.
Taken in the same sequence, the figures for “B9A018 and related entries (UniProt Q53GS9)” were 1.038 ± 0.0095 and 1.01 ± 0.072.
For “B4DK77 and related entries (UniProt Q9H6K4)”, the NP40-soluble protein abundance was 0.992 ± 0.04 (concentration: 0.1mM) and 1.03 ± 0.038 (concentration: 0.5mM).
For the target “A8K878 and related entries (UniProt P55145)”, the NP40-soluble protein abundance is 0.976 ± 0.027 (concentration: 0.1mM) and 1.03 ± 0.051 (concentration: 0.5mM).
As for “E5RGS2 and related entries (UniProt Q9H6H4)”, the NP40-soluble protein abundance by setting is: (concentration: 0.1mM) 1.01 ± 0.025; (concentration: 0.5mM) 1.01 ± 0.026.
As to UniProt A2RRP1 and related entries, the NP40-soluble protein abundance reads like this: (concentration: 0.1mM) 1.01 ± 0.051; (concentration: 0.5mM) 0.962 ± 0.1.
Turning to “C9JNV2 and related entries (UniProt P41223)”, the NP40-soluble protein abundance came to 1.04 ± 0.019 (concentration: 0.1mM) and 1.04 ± 0.042 (concentration: 0.5mM).
With “B1AMT0 and related entries (UniProt Q8N3U4)”, the NP40-soluble protein abundance was determined as 1.02 ± 0.06 (concentration: 0.1mM) and 0.985 ± 0.084 (concentration: 0.5mM).

These data come from the supplement of paper PMC6411743.
